From patent US6410722
For at least one entry, the source does not settle the construct or the ends of the probe. Results from cells or extracts need not show a direct contact.

What was measured:
[1] = system: OBA (Ors Binding Activity), Sephacryl S-300 pool I, ~150-200 kDa; assay: EMSA; conditions: complex reduced at 50-fold and abolished at 500-fold molar excess of cold A3/4; South-western with labeled A3/4 also run; protein in an extract; protein details: partially purified HeLa cell activity, native; label: 5' end-label (32P)
[2] = system: OBA (Ors Binding Activity), Sephacryl S-300 pool I, ~150-200 kDa; assay: competition with a labelled probe; conditions: circular ds plasmid competed for OBA binding; protein in an extract; protein details: partially purified HeLa cell activity, native; only the site is given

“CCTCAAATGGTCTCCAATTTTCCTTTGGCAAATTCC (double strand) [A3/4 36-bp alphaconsensus oligonucleotide (ds)]”: binds [1].

“CCTCAAATGGTCTCCAATTTTCCTTTGGCAAATTCC [circular plasmid containing A3/4 consensus]”: binds [2].
